Each structure is given as a SMILES string. The campaign covered roughly 2,800 compounds. Fewer than 10 were called active. Inconclusive results (about 7%) are left out. Calls follow the shape of the dose curve; as a rule, active = well fitted inhibition curve with a large enough effect; inconclusive = small, poorly fitted or top-dose-only effect; inactive = no such curve, though single readings can be large or run the other way. Some of the results follow.

By UniProt entry, the sequences of proteins in these tests, tags left out. Where a name states a change or a piece, a line headed by the entry shows the natural chain unless it says otherwise.
UniProt C7C422: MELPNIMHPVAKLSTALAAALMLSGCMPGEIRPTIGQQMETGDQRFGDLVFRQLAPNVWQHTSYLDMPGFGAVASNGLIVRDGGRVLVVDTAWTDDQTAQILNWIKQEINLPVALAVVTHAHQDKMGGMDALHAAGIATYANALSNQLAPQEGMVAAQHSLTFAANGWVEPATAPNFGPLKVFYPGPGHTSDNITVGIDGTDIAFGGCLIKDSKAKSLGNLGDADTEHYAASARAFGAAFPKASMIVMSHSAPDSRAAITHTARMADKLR

The target of the test is Metallo-beta-lactamase type 2 (Klebsiella pneumoniae) (UniProt C7C422). The test can be described thus: qHTS to identify inhibitors of the New Delhi Metallo-beta-lactamase (NDM): Nitrocefin screen against the machine-based learning selections. Also: % of control where 0% means no effect. The settings on record: NDM-1 enzyme, nitrocefin hydrolysis, absorbance 485 nm; at 57.5 µM (top of the series) unless noted. From the text: Assay Submitter (PI): James Inglese Ph.D., Patricia Dranchak Ph.D., Mahesh Aitha Ph.D. Assay Development and Screening Technology Laboratory (ADST) National Center for Advancing Translational Sciences (NCATS), Rockville, MD National Institute of Health (NIH), Bethesda, Maryland The metallo-beta-lactamases (MBL) are a main antibiotic resistance mechanism evolved by bacteria. There is an urgent clinical need for MBL inhibitors to mitigate this growing threat. To support a machine-based learning study, qHTS has been used to experimentally test inhibitors identified by prediction tools.
PROTOCOL TABLE (as described by Inglese et al., 2007) SEQUENCE No. (e.g., 1, 2, 3, etc.); […] (e.g., enzyme, Incubation, Reagent, etc.); VALUE; DESCRIPTION Primary Screen 1; NDM-1; 4 uL of 3 nM enzyme [2 nM final] in 50 mM HEPES (pH 7.0), 1 uM […], 0.01% Tween20; Use BioRaptr to dispense into two sets of Aurora black, clear bottom high base 1536-well plates 2; Compounds; 23 nL; Use Pin Tool (Wako) to transfer DMSO control and library compounds in DMSO 3; Incubate; >30 min 4a; Reagent; 2 uL of 50 uM nitrocefin [16.7 uM final] to one set of assay plates 4b; Reagent; 2 uL of 150 uM meropenem [50 uM final] to second set of assay plates 5a; Incubate; 15 min 5b; Incubate; 30 min 6a; Detector; Absorbance at 485 nm (bandwidth = 5 nm, 25 flashes/well) on Tecan Infinity 6b; Detector; Absorbance at 300 nm (bandwidth = 5 nm, 25 flashes/well) on Tecan Infinity NOTES (numbers refer to sequence above) 1; Column 1 of each plate received assay buffer without enzyme and columns 2-48 received enzyme for a final assay concentration of 2 nM. 2; Control plate contained DMSO in columns 1, 2, 3, and 4. 3; Compound interaction with enzyme. 4; Nitrocefin and meropenem substrates were prepared in the same assay buffer as step 1 for a final assay concentration of 16.7 uM and 50 uM, respectively, and added to all wells across respective sets of assay plates. 5; Default reader settings were applied for absorbance read at 485 nm (nitrocefin) or 300 nm (meropenem), bandwidth = 5 nm, 25 flashes/well. References: Inglese J, Shamu CE, Guy RK. 2007. Reporting data from high-throughput screening of small-molecule libraries. Nat Chem Biol. doi:10.1038/nchembio0807-438 Yasgar A, Shinn P, Jadhav A, Auld D, Michael S, Zheng W, Austin CP, Inglese J, Simeonov A. 2008. Compound Management for Quantitative High-Throughput Screening. J Lab Autom 13:79 - 89. doi:10.1016/j.jala.2007.12.004
Turning to `CC(=O)c1ccc(NC(=O)OC[C@H]2C[C@@H]3CCN2C[C@@H]3c2cc(-c3cccs3)nn2C)cc1`, the activity, negative = inhibition was inactive: -1.4% [at 38.4 µM].
The figure for `Cc1ccc2c(n1)N(C)[C@H](CO)CCN(C1CCCC1)C2` is inactive: -0.123% [at 76.7 µM].
With `COc1cc2c(cc1Oc1ccccc1)NC(=O)C21CCN(Cc2cccc(O)c2)CC1` the figure was inactive: 4.34%.
With `Cn1nc(C(=O)N[C@@H]2COCC[C@@H]2OCc2cscn2)c2ccccc21`, the activity, negative = inhibition was inactive: -5.05% [at 38.4 µM].
In the case of `CC(=O)NCCNC(=O)[C@H]1CN2CCC1C[C@@H]2Cn1cc(CSc2ccccc2)nn1` (stereo not given in full), the activity, negative = inhibition was inactive: 10.9% [at 38.4 µM].
With `Cc1nc(C2CCCC2)cc([C@H]2CN3CC[C@H]2C[C@@H]3CNC(=O)CCCC(=O)O)n1` the figure was inactive: 10.2%.
With `Cc1ccc(S(=O)(=O)NC[C@H]2C[C@@H]3CCN2C[C@@H]3CN2CCN(c3ncccn3)CC2)cc1`, the activity, negative = inhibition is inactive: -11.2% [at 38.4 µM].
The figure for `C#CCN(C)C[C@H]1CN2CC[C@H]1C[C@@H]2CNC(=O)NC(C)C` is inactive: 4.29%; for `CCNC(=O)NC[C@H]1C[C@@H]2CCN1C[C@@H]2c1cc(-c2ccccc2)nn1C` it is inactive: 1.6%; for `CN(C[C@H]1CN2CC[C@H]1C[C@@H]2CNS(=O)(=O)c1cccs1)c1ccccc1` it is inactive: -23.7%.
Regarding `COCC(=O)NC[C@H]1C[C@@H]2CCN1C[C@@H]2c1cc(-c2cccs2)nn1C`, the activity, negative = inhibition is inactive: 1.82%.
Consider `COCC(=O)NC[C@H]1C[C@@H]2CCN1C[C@@H]2c1cc(-c2ccc(OC)cc2)nn1C`, for which the activity, negative = inhibition was inactive: 6.6%.
For `CC(C)(C)c1cn(C[C@H]2CC3CCN2C[C@@H]3C(=O)NCc2ccccc2)nn1` (stereo not given in full), the activity, negative = inhibition is inactive: -5.09%.
The figure for `COc1ccc(NC(=O)OC[C@H]2C[C@@H]3CCN2C[C@@H]3c2cc(-c3ccccc3OC)nn2C)cc1` is inactive: 7.37% [at 38.4 µM].
The figure for `Cn1nc(-c2ccc(F)cc2)cc1[C@H]1CN2CC[C@H]1C[C@@H]2CNC(=O)COc1ccccc1` is inactive: -3.76% [at 38.4 µM]; for `C=C[C@H]1CN2CC[C@H]1C[C@@H]2CNC(=O)c1ccc(C#N)cc1` it is inactive: -3.37%.
As to `CC(C)NC(=O)NC[C@H]1C[C@@H]2CCN1C[C@@H]2c1cc(-c2cccs2)nn1C`, the activity, negative = inhibition is inactive: -3.05%.
On to `CC(C)N1C[C@@H]2OCC(=O)N(CC3CC3)[C@@H]2C1`, for which the activity, negative = inhibition was inactive: -1.92% [at 76.7 µM].
Take `CN(Cc1ccccc1)C[C@H]1CN2CC[C@H]1C[C@@H]2CNC(=O)Nc1cccc(C#N)c1`: the activity, negative = inhibition was inactive: 2.67%.
In the case of `O=C(O)c1cn(Cc2ccccc2F)nn1`, the activity, negative = inhibition is inactive: -8.24% [at 38.4 µM].
The figure for `CCCS(=O)(=O)NC[C@H]1C[C@@H]2CCN1C[C@@H]2c1cc(-c2cccs2)nn1C` is inactive: -0.183%.
In the case of `Cc1nc(-c2ccccc2Br)cc([C@H]2CN3CC[C@H]2C[C@@H]3CNC(=O)Nc2ccccc2)n1`, the activity, negative = inhibition is inactive: -18.1% [at 38.4 µM].
`CNCc1cn(C[C@H]2CC3CCN2C[C@@H]3C(=O)Nc2ccccc2)nn1` (stereo not given in full): the activity, negative = inhibition was inactive: -3.55%.
As to `Cc1nc(-c2ccccc2Br)cc([C@H]2CN3CC[C@H]2C[C@@H]3CNC(=O)c2ccc(N(C)C)cc2)n1`, the activity, negative = inhibition was inactive: 0.539% [at 38.4 µM].
For the compound `CCCS(=O)(=O)NC[C@H]1C[C@@H]2CCN1C[C@@H]2CC`, the activity, negative = inhibition was inactive: 3.53% [at 76.7 µM].
The figure for `COc1ccccc1N1CCN(C(=O)[C@H]2CN3CCC2C[C@@H]3Cn2cc(C(C)(C)O)nn2)CC1` (stereo not given in full) is inactive: 3.42% [at 38.4 µM]; for `Cc1nc(-c2ccccc2)cc([C@H]2CN3CC[C@H]2C[C@@H]3CNC(=O)C2CCC2)n1` it is inactive: -9.59%.
As for `O=C(C1CCCCC1)N1C[C@@H]2C[C@H](C1)c1ccc(-c3cccc(C(F)(F)F)c3)c(=O)n1C2`, the activity, negative = inhibition was inactive: -11.5% [at 38.4 µM].
With `Cn1nc(-c2ccccc2)cc1[C@H]1CN2CC[C@H]1C[C@@H]2CNC(=O)N1CCOCC1` the figure was inactive: -0.912%.
As for `Cc1ncc2c(n1)C[C@@H]1CC[C@H]2N1C(=O)c1sccc1C`, the activity, negative = inhibition is inactive: 1.52% [at 38.4 µM].
As for `CCN(CC)C[C@H]1CN2CC[C@H]1C[C@@H]2CNC(=O)Nc1cccc(SC)c1`, the activity, negative = inhibition was inactive: -14%.
Turning to `C#C[C@H]1CN2CC[C@H]1C[C@@H]2COC(=O)Nc1cc(OC)cc(OC)c1`, the activity, negative = inhibition is inactive: -10.4%.
Take `CC(C)NC(=O)NC[C@H]1C[C@@H]2CCN1C[C@@H]2c1cc(C2CCCCC2)nn1C`: the activity, negative = inhibition was inactive: -1.69%.
As for `Cn1nc(-c2cccs2)cc1[C@H]1CN2CC[C@H]1C[C@@H]2CNC(=O)Nc1ccccc1`, the activity, negative = inhibition was inactive: -0.379%.
With `CC(=O)NCCNC(=O)[C@H]1CN2CCC1C[C@@H]2Cn1cc(-c2ccc(C(C)(C)C)cc2)nn1` (stereo not given in full) the figure was inactive: -7.2% [at 38.4 µM]; with `C=C[C@H]1CN2CC[C@H]1C[C@@H]2CNC(=O)c1cc(OC)c(OC)c(OC)c1`, inactive: -3.27%; with `Cc1cccc(OCC(=O)N2[C@H]3CC[C@@H]2c2cnc(-c4ccccc4)nc2C3)c1`, inactive: -0.176% [at 38.4 µM].
Turning to `Cc1nc(-c2ccccc2)cc([C@H]2CN3CC[C@H]2C[C@@H]3CNC(=O)c2cccs2)n1`, the activity, negative = inhibition was inactive: 4.18%.
As for `O=C(c1ccc(F)cc1)N1C[C@@H]2C[C@H](C1)c1c(-c3cc4ccccc4s3)ccc(=O)n1C2`, the activity, negative = inhibition is inactive: -1.25% [at 38.4 µM].
As to `COc1ccc(-c2cc([C@H]3CN4CC[C@H]3C[C@@H]4CNS(=O)(=O)c3ccc(C)cc3)n(C)n2)cc1OC`, the activity, negative = inhibition was inactive: 4.34% [at 38.4 µM].
Consider `COc1cc2c(cc1OCc1ccncc1)NC(=O)C21CCN(Cc2cccc(O)c2)CC1`, for which the activity, negative = inhibition was inactive: -1.5% [at 38.4 µM].
On to `CC(C)(C)NC(=O)N1[C@H]2CC[C@@H]1c1cnc(-c3ccccc3)nc1C2`, for which the activity, negative = inhibition was inactive: 4.25% [at 38.4 µM].
For `COc1ccccc1-n1cc(C2=CCN(CCOCCO)CC2)cn1`, the activity, negative = inhibition is inactive: 7.53% [at 38.4 µM].
In the case of `Cc1nc(-c2ccc(N(C)C)cc2)cc([C@H]2CN3CC[C@H]2C[C@@H]3COC(=O)NC(C)C)n1`, the activity, negative = inhibition is inactive: -0.971% [at 38.4 µM].
Consider `CC(C)NC(=O)OC[C@H]1C[C@@H]2CCN1C[C@@H]2c1cc(C2CCCC2)nc(-c2ccncc2)n1`, for which the activity, negative = inhibition was inactive: -3.64% [at 38.4 µM].

The values above are taken from PubChem BioAssay AID1794844 (National Center for Advancing Translational Sciences (NCATS), 2023).
